According to PubChem BioAssay AID743255 (National Center for Advancing Translational Sciences (NCATS), 2014):
In all, about 390,000 compounds went through this assay and about 910 (0.23%) were called active. Inconclusive means that the source gave no clear call. Such entries were picked first, then a sample of the others. Calls follow the shape of the dose curve; as a rule, active = well fitted inhibition curve with a large enough effect; inconclusive = small, poorly fitted or top-dose-only effect; inactive = no such curve, though single readings can be large or run the other way. Potencies of inconclusive entries are doubtful fits and often do not repeat.

Sequences of proteins named here, by UniProt entry; tags and fusion partners are left off. A change or cut given only in a name is not applied to a line headed by its entry.
UniProt O94782: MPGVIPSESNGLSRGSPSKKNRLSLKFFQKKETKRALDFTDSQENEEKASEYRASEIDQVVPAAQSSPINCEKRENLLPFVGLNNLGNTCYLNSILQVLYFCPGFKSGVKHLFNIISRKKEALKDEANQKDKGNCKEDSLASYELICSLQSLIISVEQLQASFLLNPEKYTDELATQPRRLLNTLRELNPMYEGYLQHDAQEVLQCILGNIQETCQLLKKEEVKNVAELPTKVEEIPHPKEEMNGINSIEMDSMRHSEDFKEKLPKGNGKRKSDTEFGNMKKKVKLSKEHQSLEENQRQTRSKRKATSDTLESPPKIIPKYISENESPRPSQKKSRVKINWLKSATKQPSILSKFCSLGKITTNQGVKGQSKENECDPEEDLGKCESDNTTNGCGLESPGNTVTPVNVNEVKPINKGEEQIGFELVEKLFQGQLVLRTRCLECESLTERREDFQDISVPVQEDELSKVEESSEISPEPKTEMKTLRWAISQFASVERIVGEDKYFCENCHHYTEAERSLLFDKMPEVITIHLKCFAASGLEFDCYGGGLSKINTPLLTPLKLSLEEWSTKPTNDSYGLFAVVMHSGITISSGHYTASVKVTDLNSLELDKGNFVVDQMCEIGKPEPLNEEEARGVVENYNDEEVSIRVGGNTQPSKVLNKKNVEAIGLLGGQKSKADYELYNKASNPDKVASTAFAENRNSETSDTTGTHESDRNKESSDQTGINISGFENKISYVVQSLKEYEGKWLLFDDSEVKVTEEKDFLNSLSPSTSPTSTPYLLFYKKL

Molecular target: Ubiquitin carboxyl-terminal hydrolase 1 (Homo sapiens) (UniProt O94782)
Experiment: Inhibitors of USP1/UAF1: Primary Screen; also: nearly all actives have a fitted effect of over 60% in size
Details: recombinant USP1/UAF1, Ub-Rhodamine cleavage fluorescence; series mostly up to 57.1 µM
How it was run: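 Step one: compound is pinned into 1nM USP1/UAF1 in HEPES pH 7.8 buffer with TCEP. Step two: 15 min room-temperature incubation. Step three: Ub-Rho (150nM final) starts cleavage, tracked by fluorescence over six one-minute reads.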
Potency is read from the fitted curve at half-maximal effect.

Row | Structure (SMILES) | Potency
1 | COc1ccc(C2(c3ccc(OC)cc3)NC(=O)N(CC(=O)Nc3ccc(C(N)=O)cc3)C2=O)cc1 | inconclusive: 14.1 µM [inhibitor, partial curve, poor fit]
2 | O=C(NC(=S)Nc1ccc(S(=O)(=O)Nc2ncccn2)cc1)c1ccc(Br)cc1 | inconclusive: 17.8 µM [inhibitor, partial curve]
3 | Cc1cc(C)cc(NC(=O)CCS(=O)(=O)c2ccc3c(c2)oc(=O)n3C)c1 | inconclusive: 0.891 µM [inhibitor, full curve, poor fit]
4 | C[C@@H]1CCC(=O)N(C[C@@H](C)CSc2ccc(Br)cc2)CC1 | inconclusive: 0.282 µM [inhibitor, full curve, poor fit]
5 | CC12CCC(C(=NO)C1=NO)C2(C)C (stereo unspecified) | inconclusive: 39.8 µM [inhibitor, partial curve, poor fit]
6 | COC(=O)c1ccc2c(=O)n(CCCCCC(=O)NC(C)C)c(=O)[nH]c2c1 | inconclusive: 28.2 µM [inhibitor, single point]
7 | CN(C)CCNc1ncnc2c1sc1nc(-c3ccccc3)c3c(c12)CCCC3 | inactive
8 | COc1cc(-c2nnc(SCC(=O)Oc3ccc(C)cc3C)o2)cc(OC)c1OC | inconclusive: 15.8 µM [inhibitor, partial curve, poor fit]
9 | COc1ccc(NC(=O)CN(c2ccccc2OC)S(C)(=O)=O)c(OC)c1 | inconclusive: 112 µM [inhibitor, partial curve, poor fit]
10 | COCCN(C(=S)Nc1ccccc1C)C(C)c1ccco1 (stereo unspecified) | inconclusive: 39.8 µM [inhibitor, partial curve]
11 | CCOC(=O)C1=C(CN2CCSCC2)NC(=O)NC1c1cc(C)ccc1C (stereo unspecified) | inconclusive: 5.01 µM [inhibitor, partial curve]
12 | CCN(CC)CCN(Cc1cc2cc(C)ccc2[nH]c1=O)C(=O)Nc1ccccc1OC | inactive
13 | CC(C)(C)OC(=O)N(Cc1ccccc1)Cc1ccccc1OCc1ccc(NC(=O)C2CCC2)cc1 | inconclusive: 89.1 µM [inhibitor, partial curve, poor fit]
14 | COCc1nc(-c2ccc(-c3ccccc3)nc2OC)no1 | inactive
15 | CCCNC(=O)C(Cc1ccc(Cl)cc1)NC(=O)c1ccc(C#N)cc1 (stereo unspecified) | inconclusive: 0.398 µM [inhibitor, full curve, poor fit]
16 | Cc1cccc(NC(=O)c2ccc(S(=O)(=O)N(C)C)cc2)c1 | inconclusive: 31.6 µM [inhibitor, single point]
17 | O=C1c2[nH]nc(-c3ccccc3O)c2C(c2ccc(Cl)cc2)N1CCc1ccccc1 (stereo unspecified) | inactive
18 | CC(C)c1ccc(NC(=O)C(NS(=O)(=O)c2ccc3c(c2)CCC(=O)N3)c2ccccc2)cc1 (stereo unspecified) | inconclusive: 0.355 µM [inhibitor, full curve]
19 | COC(=O)C[C@H]1c2cc(C(F)(F)F)ccc2S(=O)(=O)N1C1CCCCC1 | inconclusive: 50.1 µM [inhibitor, partial curve, poor fit]
20 | c1ccc(COc2ncnc3c2ncn3CCCNCCN2CCOCC2)cc1 | inconclusive: 28.2 µM [inhibitor, partial curve]
21 | CCc1ccccc1-n1c2c(cc(-c3nc(-c4ccc(Cl)cc4)cs3)c1=O)C(=O)CC(C)(C)C2 | inactive

3 entries already listed, arranged by heavy-atom count, low to high:
Row | Structure (SMILES) | Potency
16 | Cc1cccc(NC(=O)c2ccc(S(=O)(=O)N(C)C)cc2)c1 | inconclusive: 31.6 µM [inhibitor, single point]
3 | Cc1cc(C)cc(NC(=O)CCS(=O)(=O)c2ccc3c(c2)oc(=O)n3C)c1 | inconclusive: 0.891 µM [inhibitor, full curve, poor fit]
8 | COc1cc(-c2nnc(SCC(=O)Oc3ccc(C)cc3C)o2)cc(OC)c1OC | inconclusive: 15.8 µM [inhibitor, partial curve, poor fit]

(listing goes on)

Row | Structure (SMILES) | Potency
22 | Cc1c(C#N)c(O)[nH]c(=O)c1N=Nc1ccc(Br)cc1C(=O)O | inconclusive: 15.8 µM [inhibitor, partial curve]
23 | N#CCC1c2ccccc2CCN1C(=O)Nc1cccc(Cl)c1 (stereo unspecified) | inconclusive: 31.6 µM [inhibitor, single point]
24 | CN(CC(=O)Nc1ccccc1Cl)C(=O)COC(=O)c1nc(Cl)c(Cl)c(Cl)c1Cl | inconclusive: 28.2 µM [inhibitor, partial curve, poor fit]
25 | COc1ccc(-n2ncc(C(=O)Nc3ccc4c(c3)OCCO4)c2C2CCN(C(=O)OC(C)(C)C)CC2)cc1 | inconclusive: 2.82 µM [inhibitor, partial curve]
26 | Cc1ccc(NC(=O)CC2=NC(=O)C(CC(=O)Nc3ccccc3F)S2)cc1 (stereo unspecified) | inactive
27 | O=C1[C@H](Oc2ccccc2)[C@@H](c2ccccc2)N1c1ccncc1 | inconclusive: 39.8 µM [inhibitor, partial curve, poor fit]
28 | COc1ccccc1C(=O)OCC(=O)NC12CC3CC(CC(C3)C1)C2 | inactive
29 | O=S(=O)(/N=C(\Sc1ccc(Cl)cc1)c1ccccc1)c1ccccc1 | inactive
30 | C#CCN(Cc1ccco1)C(=O)c1cc(COc2ccc(F)cc2Cl)on1 | inactive
31 | C/C(=C\c1ccco1)CN1CCN(Cc2ccc(C)o2)C(CCO)C1 (stereo unspecified) | inconclusive: 0.794 µM [inhibitor, full curve, poor fit]
32 | COc1ccc2[nH]cc(CCNC(=O)c3cnn(-c4ccccc4Cl)c3C3CCN(C(=O)OC(C)(C)C)CC3)c2c1 | inconclusive: 12.6 µM [inhibitor, partial curve]
33 | CCN(c1cc(C)cc(C)c1)S(=O)(=O)c1nnc(NC(=O)c2ccco2)s1 | inconclusive: 44.7 µM [inhibitor, partial curve, poor fit]
34 | COCCn1c(SCC(=O)N2CCCC2)nc2c(c1=O)SCC2 | inconclusive: 0.126 µM [inhibitor, full curve, poor fit]
35 | C[C@H](CO)N1C[C@H](C)[C@@H](CN(C)S(=O)(=O)c2cn(C)cn2)Oc2ccc(NC(=O)C3CCCCC3)cc2C1=O | inconclusive: 39.8 µM [inhibitor, partial curve]
36 | CCCOc1ccc(-c2nc(N3CCN(CC)CC3)c3ccccc3n2)cc1 | inconclusive: 31.6 µM [inhibitor, partial curve]
37 | CC(=O)N1CCN(C(=O)c2cccc(S(=O)(=O)N3CCOCC3)c2)CC1 | inconclusive: 0.282 µM [inhibitor, full curve, poor fit]
38 | CCOc1ccc(N2CC(c3nc4ccccc4n3Cc3cccc(C)c3)CC2=O)cc1 (stereo unspecified) | inconclusive: 0.355 µM [inhibitor, full curve, poor fit]
39 | O=S(=O)(Nc1ccc(O)c2ccccc12)c1ccc(F)cc1 | inconclusive: 35.5 µM [inhibitor, partial curve]
40 | CCOc1ccc(N(CC(=O)N2CC=C(c3ccccc3)CC2)S(=O)(=O)c2c(C)noc2C)cc1 | inconclusive: 7.94 µM [inhibitor, partial curve, poor fit]
41 | Cc1ccc(CCNC(=O)c2ccc3c(c2)c(C)c(C)n3Cc2ccccc2)cc1 | inconclusive: 1.58 µM [inhibitor, full curve]
42 | CCCCCCCCCCCCN1[C@@H](CC(C)=O)c2cc(F)ccc2S1(=O)=O | inconclusive: 50.1 µM [inhibitor, partial curve, poor fit]

Row | Structure (SMILES) | Potency
43 | Cc1ccc(OCC(=O)Nc2cc(-c3cccc(C)c3)nn2-c2ccccc2)cc1 | inconclusive: 44.7 µM [inhibitor, partial curve]
44 | CCc1ccc(CN(Cc2ccco2)C(=O)COc2ccc(Cl)cc2C)cc1 | inconclusive: 70.8 µM [inhibitor, partial curve, poor fit]
45 | COc1ccc([C@H]2CN(Cc3ccccc3)C(=O)[C@@H]2CC(=O)Nc2ccccc2)cc1 | inconclusive: 0.316 µM [inhibitor, full curve, poor fit]
46 | Cc1ccc(NC(=O)C(=O)NCCCN2CCOCC2)cc1C | inactive
47 | O=c1nc(NCc2ccccc2Cl)cn[nH]1 | inconclusive: 28.2 µM [inhibitor, single point]
48 | O=c1cc2oc3cc(O)c(O)cc3c(-c3ccccc3O)c-2cc1O | inconclusive: 35.5 µM [inhibitor, single point]
49 | Cc1nn(C(C)(C)C)c(OC(=O)c2cccc(F)c2)c1Sc1ccccc1 | inconclusive: 355 µM [inhibitor, partial curve, poor fit]
50 | O=[N+]([O-])c1ccc(O)c(C=Nc2ccc3c(c2)OCO3)c1 | inconclusive: 28.2 µM [inhibitor, partial curve]
51 | CC(C)NC[C@@H](O)c1ccc(O)c(O)c1 | inconclusive: 70.8 µM [inhibitor, partial curve, poor fit]
52 | COc1ccccc1CNC(=O)c1cc2ccc3ccc(C)[nH]c3c2n1 | inconclusive: 0.251 µM [inhibitor, full curve, poor fit]
53 | CC[C@H](C)[C@H](NC(=O)OCc1ccccc1)C(=O)OCC(=O)Nc1ccc(N2CCOCC2)cc1 | inconclusive: 6.31 µM [inhibitor, full curve]
54 | CCOc1cc(C(c2c(C)[nH][nH]c2=O)c2c(C)[nH][nH]c2=O)cc([N+](=O)[O-])c1O | inactive
55 | Cc1ccc(C(=O)C2=C(O)C(=O)N(CC3CCCO3)C2c2ccccc2F)o1 (stereo unspecified) | inconclusive: 7.08 µM [inhibitor, full curve, poor fit]
56 | CCN(CC)C(=O)c1nc[nH]c1C(=O)N1CCN(c2ccccc2)CC1 | inconclusive: 3.16 µM [inhibitor, full curve]
57 | CCCCNC(=O)[C@@](CC)(ONc1ccccc1C(F)(F)F)c1cccc2ccccc12 | inconclusive: 35.5 µM [inhibitor, partial curve, poor fit]
58 | COc1ccc(N(C)C(=O)Cc2c(C(=O)O)[nH]c3ccccc23)c(OC)c1 | inconclusive: 4.47 µM [inhibitor, partial curve]
59 | CC(=O)C1=C(C)OC2(O)c3ccccc3C(=O)C12O (stereo unspecified) | active: 8.91 µM
60 | CC(OC(=O)c1ccc2c(=O)n3c(nc2c1)CCC3)C(=O)Nc1ccc(C(N)=O)cc1 (stereo unspecified) | inactive
61 | CC(=O)N1CCCc2cc(S(=O)(=O)N(Cc3ccccc3)C(C)C)ccc21 | inconclusive: 39.8 µM [inhibitor, partial curve, poor fit]
